Among the data in PMC12282055 are binding values, retold here.

Where a chain is given by its changes, count along the chain named. Numbers in names are those of the source. Results are given in words; binding and its absence hold for the method and conditions named. Binding seen in cells or lysates may run through a third protein. Some binding calls cover weakened binding; strength is not graded here.

Assay [1] has as its target T1, IFIT3 K249E (RNA-binding mutant) (human) (UniProt O14879).
T1 sequence: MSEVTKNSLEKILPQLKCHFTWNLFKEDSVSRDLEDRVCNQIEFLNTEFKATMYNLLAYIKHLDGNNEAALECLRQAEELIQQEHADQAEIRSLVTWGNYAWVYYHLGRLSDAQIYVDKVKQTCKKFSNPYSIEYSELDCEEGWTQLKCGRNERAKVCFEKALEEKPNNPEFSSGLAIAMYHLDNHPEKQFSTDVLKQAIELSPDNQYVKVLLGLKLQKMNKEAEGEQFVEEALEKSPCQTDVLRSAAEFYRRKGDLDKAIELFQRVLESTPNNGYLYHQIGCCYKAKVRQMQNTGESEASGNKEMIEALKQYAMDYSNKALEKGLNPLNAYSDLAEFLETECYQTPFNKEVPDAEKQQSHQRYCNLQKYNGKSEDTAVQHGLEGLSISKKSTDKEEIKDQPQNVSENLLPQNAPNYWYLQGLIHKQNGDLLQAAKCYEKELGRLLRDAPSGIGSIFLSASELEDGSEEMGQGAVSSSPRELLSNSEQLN
Kind of assay: co-IP; GFP- and V5-tagged WT and mutant proteins co-expressed in 293T cells; lysed in co-IP buffer; GFP-tagged form immunoprecipitated overnight with GFP trap resin, four washes; co-precipitating V5-tagged proteins detected by western blot. For orientation: A western blot detects proteins with antibodies after separation by electrophoresis.

The target of assay [2] is T2, IFIT3 (interferon-induced protein with tetratricopeptide repeats 3), wild type (human) (UniProt O14879).
T2 sequence: T1 sequence with E249K
The description is as above.

B1: IFIT3 (interferon-induced protein with tetratricopeptide repeats 3), wild type (protein, UniProt O14879 1-490)
chain: T1 sequence with E249K
Consider B1, for which the binding entry in assay [1] and in assay [2] was “binds” each time.

B2: IFIT3 K249E (RNA-binding mutant) (protein, UniProt O14879 1-490)
chain: T1 sequence
For B2, the binding result in assay [1] and in assay [2] was “binds” throughout.
